# ± gives the standard deviation of the averaged measurements. The list shows a part of the results, in another mix than the full data.
# Legend:
# Experiment in all cases: NP40-soluble protein abundance relative to vehicle (solubility fold change) (ratio); higher = more soluble protein in presence of AMP-PNP
# AARSD1 = target: T1, AARSD1 (UniProt Q9BTE6)
# T1 sequence (whole entry): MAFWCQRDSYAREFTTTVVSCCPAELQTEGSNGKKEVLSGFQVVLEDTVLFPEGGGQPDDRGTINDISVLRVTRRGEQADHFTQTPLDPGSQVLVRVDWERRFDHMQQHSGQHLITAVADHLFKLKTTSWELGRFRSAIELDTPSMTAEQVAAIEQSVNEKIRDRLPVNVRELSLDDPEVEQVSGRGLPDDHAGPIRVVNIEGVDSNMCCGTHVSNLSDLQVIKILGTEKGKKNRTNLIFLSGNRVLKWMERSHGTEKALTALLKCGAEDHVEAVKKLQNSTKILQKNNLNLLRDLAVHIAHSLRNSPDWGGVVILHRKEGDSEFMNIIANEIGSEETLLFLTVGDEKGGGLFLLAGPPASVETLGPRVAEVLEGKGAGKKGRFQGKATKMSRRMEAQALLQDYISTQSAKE
# Summary of the method: (§1)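 Jurkat crude lysate prepared with a Dounce homogeniser was treated at eight concentrations spanning 0.1 to 10 mM, 10 min at room temperature then 3 min at 37 °C. Solubilisation with 0.8% NP40 and benzonase and ultracentrifugation preceded TMT labelling of the supernatant for LC-MS/MS. Fold change against the detergent-processed vehicle was determined per replicate from vsn-normalised intensities, across three independent experiments.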
# ABHD6 = target: T2, ABHD6 (UniProt Q9BV23)
# T2 sequence (whole entry): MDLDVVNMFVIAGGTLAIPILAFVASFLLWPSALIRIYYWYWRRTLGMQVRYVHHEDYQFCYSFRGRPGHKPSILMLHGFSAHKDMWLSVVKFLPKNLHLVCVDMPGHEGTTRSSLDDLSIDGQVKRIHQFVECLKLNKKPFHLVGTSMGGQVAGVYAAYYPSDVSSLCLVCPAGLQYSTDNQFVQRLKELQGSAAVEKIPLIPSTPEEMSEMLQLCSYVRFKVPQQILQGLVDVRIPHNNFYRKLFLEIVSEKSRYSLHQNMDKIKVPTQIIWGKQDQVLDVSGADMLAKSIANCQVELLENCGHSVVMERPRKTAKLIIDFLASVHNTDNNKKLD
# Summary of the method: as §1
# ADAT1 = target: T3, ADAT1 (UniProt Q9BUB4)
# T3 sequence (whole entry): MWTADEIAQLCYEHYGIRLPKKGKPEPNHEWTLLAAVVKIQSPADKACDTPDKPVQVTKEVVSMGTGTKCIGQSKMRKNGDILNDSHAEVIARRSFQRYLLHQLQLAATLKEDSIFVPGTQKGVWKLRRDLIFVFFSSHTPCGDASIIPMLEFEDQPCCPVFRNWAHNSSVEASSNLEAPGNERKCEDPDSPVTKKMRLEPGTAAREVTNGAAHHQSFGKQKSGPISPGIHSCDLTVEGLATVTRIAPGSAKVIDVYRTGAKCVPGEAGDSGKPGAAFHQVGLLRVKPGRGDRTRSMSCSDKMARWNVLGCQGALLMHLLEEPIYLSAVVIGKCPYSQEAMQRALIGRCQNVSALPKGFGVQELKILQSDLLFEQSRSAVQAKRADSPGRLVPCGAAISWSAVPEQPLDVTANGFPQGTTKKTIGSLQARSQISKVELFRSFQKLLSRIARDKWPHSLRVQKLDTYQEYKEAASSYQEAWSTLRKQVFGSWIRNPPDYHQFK
# Summary of the method: as §1
# DNAJC2 = target: T4, DNAJC2 (UniProt Q99543)
# T4 sequence (whole entry): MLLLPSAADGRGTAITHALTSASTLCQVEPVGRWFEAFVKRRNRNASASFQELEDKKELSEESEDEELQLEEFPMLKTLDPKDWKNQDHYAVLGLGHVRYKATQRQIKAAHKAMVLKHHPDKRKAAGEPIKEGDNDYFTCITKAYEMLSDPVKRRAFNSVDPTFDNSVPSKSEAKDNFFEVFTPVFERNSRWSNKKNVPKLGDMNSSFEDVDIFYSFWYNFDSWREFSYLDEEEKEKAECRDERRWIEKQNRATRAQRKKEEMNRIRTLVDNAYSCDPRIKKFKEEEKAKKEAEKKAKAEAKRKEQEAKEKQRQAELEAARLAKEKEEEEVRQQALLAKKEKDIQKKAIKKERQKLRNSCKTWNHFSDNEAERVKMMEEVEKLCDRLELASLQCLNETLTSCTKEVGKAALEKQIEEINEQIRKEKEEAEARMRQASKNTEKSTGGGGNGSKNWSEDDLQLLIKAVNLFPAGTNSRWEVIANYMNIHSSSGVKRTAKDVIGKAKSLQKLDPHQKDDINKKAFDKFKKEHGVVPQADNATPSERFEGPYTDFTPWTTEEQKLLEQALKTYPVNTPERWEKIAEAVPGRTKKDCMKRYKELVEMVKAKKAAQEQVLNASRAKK
# Summary of the method: as §1
# DOHH = target: T5, DOHH (UniProt Q9BU89)
# T5 sequence (whole entry): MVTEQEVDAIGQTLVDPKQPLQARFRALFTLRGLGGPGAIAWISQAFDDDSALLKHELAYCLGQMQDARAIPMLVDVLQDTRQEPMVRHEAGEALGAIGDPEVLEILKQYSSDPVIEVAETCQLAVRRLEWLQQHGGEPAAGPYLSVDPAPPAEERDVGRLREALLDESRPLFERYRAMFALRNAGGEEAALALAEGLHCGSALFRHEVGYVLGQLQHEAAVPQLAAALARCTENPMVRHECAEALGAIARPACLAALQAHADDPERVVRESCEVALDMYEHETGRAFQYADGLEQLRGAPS
# Summary of the method: as §1
# EFHD1 = target: T6, EFHD1 (UniProt Q9BUP0)
# T6 sequence (whole entry): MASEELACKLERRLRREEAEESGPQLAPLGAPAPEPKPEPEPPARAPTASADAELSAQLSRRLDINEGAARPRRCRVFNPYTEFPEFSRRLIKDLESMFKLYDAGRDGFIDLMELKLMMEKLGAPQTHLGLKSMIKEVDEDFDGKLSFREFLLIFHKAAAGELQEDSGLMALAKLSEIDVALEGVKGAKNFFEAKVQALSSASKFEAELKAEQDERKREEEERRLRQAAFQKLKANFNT
# Summary of the method: as §1
# FUNDC2 = target: T7, FUNDC2 (UniProt Q9BWH2)
# T7 sequence (whole entry): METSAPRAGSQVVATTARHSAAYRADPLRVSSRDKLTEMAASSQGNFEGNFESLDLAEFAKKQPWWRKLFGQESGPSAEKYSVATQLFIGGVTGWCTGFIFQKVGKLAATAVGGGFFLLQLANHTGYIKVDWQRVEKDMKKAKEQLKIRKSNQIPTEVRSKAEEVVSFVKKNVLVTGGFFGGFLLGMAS
# Summary of the method: as §1
# NACC1 = target: T8, NACC1 (UniProt Q96RE7)
# T8 sequence (whole entry): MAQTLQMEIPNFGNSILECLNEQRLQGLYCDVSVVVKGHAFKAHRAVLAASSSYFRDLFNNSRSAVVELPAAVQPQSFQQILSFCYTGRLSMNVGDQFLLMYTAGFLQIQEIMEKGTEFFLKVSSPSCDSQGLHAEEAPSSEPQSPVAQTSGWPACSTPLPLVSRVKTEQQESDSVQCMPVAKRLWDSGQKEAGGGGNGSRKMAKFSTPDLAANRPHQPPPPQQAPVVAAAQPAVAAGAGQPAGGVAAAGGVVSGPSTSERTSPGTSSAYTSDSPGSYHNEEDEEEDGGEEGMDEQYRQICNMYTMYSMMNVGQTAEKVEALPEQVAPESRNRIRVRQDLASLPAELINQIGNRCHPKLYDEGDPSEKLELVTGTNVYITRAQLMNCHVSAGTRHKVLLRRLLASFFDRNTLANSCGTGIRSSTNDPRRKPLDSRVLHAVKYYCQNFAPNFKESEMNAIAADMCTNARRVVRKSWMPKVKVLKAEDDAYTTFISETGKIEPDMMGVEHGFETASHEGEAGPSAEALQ
# Summary of the method: as §1
# NOC4L = target: T9, NOC4L (UniProt Q9BVI4); conditions: concentration: 1mM
# T9 sequence (whole entry): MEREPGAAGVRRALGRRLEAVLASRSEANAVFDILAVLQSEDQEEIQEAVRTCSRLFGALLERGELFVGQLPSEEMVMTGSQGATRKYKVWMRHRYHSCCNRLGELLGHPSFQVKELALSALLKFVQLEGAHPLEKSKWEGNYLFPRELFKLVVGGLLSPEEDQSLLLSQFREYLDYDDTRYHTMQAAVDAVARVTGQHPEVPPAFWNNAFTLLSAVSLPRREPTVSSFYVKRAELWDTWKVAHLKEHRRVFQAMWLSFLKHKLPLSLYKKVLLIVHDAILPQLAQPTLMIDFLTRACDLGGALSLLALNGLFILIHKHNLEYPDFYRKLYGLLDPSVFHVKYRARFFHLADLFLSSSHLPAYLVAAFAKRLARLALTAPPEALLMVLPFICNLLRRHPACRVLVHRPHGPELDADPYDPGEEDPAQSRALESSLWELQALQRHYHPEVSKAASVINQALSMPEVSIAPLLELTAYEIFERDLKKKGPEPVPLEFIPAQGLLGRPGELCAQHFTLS
# Summary of the method: as §1
structure (smiles),measurement,setting,value
Nc1ncnc2c1ncn2[C@@H]1O[C@H](COP(=O)(O)OP(=O)(O)NP(=O)(O)O)[C@@H](O)[C@H]1O [adenylyl imidodiphosphate],NP40-soluble protein abundance,AARSD1; concentration: 1mM,0.966 ± 0.01
same,NP40-soluble protein abundance,AARSD1; concentration: 2mM,0.936 ± 0.018
same,NP40-soluble protein abundance,AARSD1; concentration: 4mM,0.9389 ± 0.0084
same,NP40-soluble protein abundance,AARSD1; concentration: 6mM,0.967 ± 0.021
same,NP40-soluble protein abundance,AARSD1; concentration: 8mM,0.962 ± 0.018
same,NP40-soluble protein abundance,AARSD1; concentration: 10mM,0.962 ± 0.02
same,NP40-soluble protein abundance,ABHD6; concentration: 1mM,1.01 ± 0.023
same,NP40-soluble protein abundance,ABHD6; concentration: 2mM,0.997 ± 0.032
same,NP40-soluble protein abundance,ABHD6; concentration: 4mM,1.01 ± 0.0071
same,NP40-soluble protein abundance,ABHD6; concentration: 6mM,1.01 ± 0.028
same,NP40-soluble protein abundance,ABHD6; concentration: 8mM,1 ± 0.025
same,NP40-soluble protein abundance,ABHD6; concentration: 10mM,0.999 ± 0.023
same,NP40-soluble protein abundance,ADAT1; concentration: 1mM,1 ± 0.027
same,NP40-soluble protein abundance,ADAT1; concentration: 2mM,1 ± 0.03
same,NP40-soluble protein abundance,ADAT1; concentration: 4mM,1.01 ± 0.031
same,NP40-soluble protein abundance,ADAT1; concentration: 6mM,0.997 ± 0.027
same,NP40-soluble protein abundance,ADAT1; concentration: 8mM,1.01 ± 0.035
same,NP40-soluble protein abundance,ADAT1; concentration: 10mM,0.995 ± 0.057
same,NP40-soluble protein abundance,DNAJC2; concentration: 1mM,1.049 ± 0.0066
same,NP40-soluble protein abundance,DNAJC2; concentration: 2mM,1.02 ± 0.015
same,NP40-soluble protein abundance,DNAJC2; concentration: 4mM,1.01 ± 0.02
same,NP40-soluble protein abundance,DNAJC2; concentration: 6mM,0.972 ± 0.045
same,NP40-soluble protein abundance,DNAJC2; concentration: 8mM,0.955 ± 0.016
same,NP40-soluble protein abundance,DNAJC2; concentration: 10mM,0.949 ± 0.024
same,NP40-soluble protein abundance,DOHH; concentration: 1mM,0.987 ± 0.041
same,NP40-soluble protein abundance,DOHH; concentration: 2mM,1.04 ± 0.012
same,NP40-soluble protein abundance,DOHH; concentration: 4mM,1.02 ± 0.05
same,NP40-soluble protein abundance,DOHH; concentration: 6mM,0.971 ± 0.015
same,NP40-soluble protein abundance,DOHH; concentration: 8mM,0.957 ± 0.06
same,NP40-soluble protein abundance,DOHH; concentration: 10mM,0.958 ± 0.042
same,NP40-soluble protein abundance,EFHD1; concentration: 1mM,0.952 ± 0.093
same,NP40-soluble protein abundance,EFHD1; concentration: 2mM,0.996 ± 0.08
same,NP40-soluble protein abundance,EFHD1; concentration: 4mM,0.955 ± 0.084
same,NP40-soluble protein abundance,EFHD1; concentration: 6mM,0.937 ± 0.066
same,NP40-soluble protein abundance,EFHD1; concentration: 8mM,0.941 ± 0.056
same,NP40-soluble protein abundance,EFHD1; concentration: 10mM,0.894 ± 0.078
same,NP40-soluble protein abundance,FUNDC2; concentration: 1mM,0.996 ± 0.015
same,NP40-soluble protein abundance,FUNDC2; concentration: 2mM,1.06 ± 0.12
same,NP40-soluble protein abundance,FUNDC2; concentration: 4mM,1 ± 0.065
same,NP40-soluble protein abundance,FUNDC2; concentration: 6mM,1.06 ± 0.067
same,NP40-soluble protein abundance,FUNDC2; concentration: 8mM,1.03 ± 0.056
same,NP40-soluble protein abundance,FUNDC2; concentration: 10mM,1.1 ± 0.12
same,NP40-soluble protein abundance,NACC1; concentration: 1mM,1 ± 0.021
same,NP40-soluble protein abundance,NACC1; concentration: 2mM,1.03 ± 0.052
same,NP40-soluble protein abundance,NACC1; concentration: 4mM,1 ± 0.049
same,NP40-soluble protein abundance,NACC1; concentration: 6mM,0.997 ± 0.034
same,NP40-soluble protein abundance,NACC1; concentration: 8mM,0.976 ± 0.042
same,NP40-soluble protein abundance,NACC1; concentration: 10mM,1.01 ± 0.067
same,NP40-soluble protein abundance,NOC4L,1.01 ± 0.019

# Shown bar-delimited: part of the list above.
structure (smiles) | measurement | setting | value
Nc1ncnc2c1ncn2[C@@H]1O[C@H](COP(=O)(O)OP(=O)(O)NP(=O)(O)O)[C@@H](O)[C@H]1O [adenylyl imidodiphosphate] | NP40-soluble protein abundance | AARSD1; concentration: 6mM | 0.967 ± 0.021
same | NP40-soluble protein abundance | ABHD6; concentration: 4mM | 1.01 ± 0.0071
same | NP40-soluble protein abundance | FUNDC2; concentration: 8mM | 1.03 ± 0.056
same | NP40-soluble protein abundance | NACC1; concentration: 8mM | 0.976 ± 0.042

# From the supplement of paper PMC6411743
